# Measured values published in patent US20220162330A1 (CELGENE, published 2022).
# No constants are given. Whether binding was seen depends on the method and setting. Some results given as binding are weak or reduced against the parent protein; the word gives no strength.
# B1: TPP-23 (408_437 with IgG1) (antibody, V domains shown)
# VH: QMQLVQSGAEVKKPGSSVKVSCKASGFNIKDYYLHWVRQAPGKGLEWMGWIDPDQGDTEYAQKFQGRVTITRDRSTSTAYMELRSLRAEDTAVYYCNAAYGSSSYPMDYWGQGTLVTVSS
# VL: NIQMTQSPSSLSASVGDRVTITCRASQDIHRYLSWFQQKPGKVPKHLIYRANRLVSGVPSRFSGSGSGTEFTLTISSLQPEDFATYYCLQYDEFPYTFGGGTKVEIK
# notes: Monospecific IgG1 with the 408_437 Fab; also called parental CD47 mAb
# Molecular target: cynomolgus CD47 on cynomolgus RBCs (cynomolgus)
# Assay: binding to isolated cynomolgus RBCs, reference at 2 µg/ml
binder,measurement,value
B1,binding,binds
